Data from the supplement of paper PMC12819154, “High-throughput peptide-centric local stability assay extends protein–ligand identification to membrane proteins, tissues and bacteria” (Nature Structural & Molecular Biology, 2025).
The list shows a part of the results. Most entries show no effect beyond the scatter of the controls.

The chains behind the UniProt entries cited, without tags or fusion partners. Where a name states a change or a piece, a line headed by the entry shows the natural chain unless it says otherwise.
UniProt P29084: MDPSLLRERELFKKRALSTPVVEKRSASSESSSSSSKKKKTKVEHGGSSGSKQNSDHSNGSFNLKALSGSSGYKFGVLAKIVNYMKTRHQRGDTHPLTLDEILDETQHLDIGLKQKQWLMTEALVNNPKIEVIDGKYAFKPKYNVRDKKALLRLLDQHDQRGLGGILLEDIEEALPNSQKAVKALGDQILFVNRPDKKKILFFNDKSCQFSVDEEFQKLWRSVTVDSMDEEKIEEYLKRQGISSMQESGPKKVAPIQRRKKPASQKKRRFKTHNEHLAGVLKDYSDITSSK
UniProt P43897: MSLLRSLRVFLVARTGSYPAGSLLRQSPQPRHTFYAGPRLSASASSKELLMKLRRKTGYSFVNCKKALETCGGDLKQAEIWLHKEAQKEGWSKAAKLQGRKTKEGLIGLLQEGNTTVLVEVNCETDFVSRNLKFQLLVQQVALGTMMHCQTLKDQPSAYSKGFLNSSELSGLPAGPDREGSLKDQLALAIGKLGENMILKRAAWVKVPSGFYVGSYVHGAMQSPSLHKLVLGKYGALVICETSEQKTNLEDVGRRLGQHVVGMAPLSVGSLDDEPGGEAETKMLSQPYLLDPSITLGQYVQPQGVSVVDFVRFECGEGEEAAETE
UniProt P37268: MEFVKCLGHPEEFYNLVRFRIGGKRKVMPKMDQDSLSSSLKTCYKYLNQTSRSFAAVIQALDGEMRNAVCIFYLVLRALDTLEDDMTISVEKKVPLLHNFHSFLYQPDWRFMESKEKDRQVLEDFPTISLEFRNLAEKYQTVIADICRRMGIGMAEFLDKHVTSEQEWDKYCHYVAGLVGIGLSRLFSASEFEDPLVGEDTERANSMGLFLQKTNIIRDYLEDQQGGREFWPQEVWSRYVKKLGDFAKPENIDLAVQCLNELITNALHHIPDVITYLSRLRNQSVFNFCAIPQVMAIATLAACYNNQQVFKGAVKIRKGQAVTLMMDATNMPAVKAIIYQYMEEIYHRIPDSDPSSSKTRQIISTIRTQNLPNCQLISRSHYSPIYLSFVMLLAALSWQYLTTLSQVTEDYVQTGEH
UniProt P30519: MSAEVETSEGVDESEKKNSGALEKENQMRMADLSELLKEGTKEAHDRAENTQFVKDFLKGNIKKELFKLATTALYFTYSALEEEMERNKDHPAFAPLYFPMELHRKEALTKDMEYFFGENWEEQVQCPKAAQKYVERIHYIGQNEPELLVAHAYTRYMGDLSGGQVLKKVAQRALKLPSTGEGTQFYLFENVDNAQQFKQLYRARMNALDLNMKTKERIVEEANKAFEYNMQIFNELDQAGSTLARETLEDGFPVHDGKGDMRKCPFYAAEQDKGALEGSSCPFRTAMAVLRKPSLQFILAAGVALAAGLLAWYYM
UniProt P35658: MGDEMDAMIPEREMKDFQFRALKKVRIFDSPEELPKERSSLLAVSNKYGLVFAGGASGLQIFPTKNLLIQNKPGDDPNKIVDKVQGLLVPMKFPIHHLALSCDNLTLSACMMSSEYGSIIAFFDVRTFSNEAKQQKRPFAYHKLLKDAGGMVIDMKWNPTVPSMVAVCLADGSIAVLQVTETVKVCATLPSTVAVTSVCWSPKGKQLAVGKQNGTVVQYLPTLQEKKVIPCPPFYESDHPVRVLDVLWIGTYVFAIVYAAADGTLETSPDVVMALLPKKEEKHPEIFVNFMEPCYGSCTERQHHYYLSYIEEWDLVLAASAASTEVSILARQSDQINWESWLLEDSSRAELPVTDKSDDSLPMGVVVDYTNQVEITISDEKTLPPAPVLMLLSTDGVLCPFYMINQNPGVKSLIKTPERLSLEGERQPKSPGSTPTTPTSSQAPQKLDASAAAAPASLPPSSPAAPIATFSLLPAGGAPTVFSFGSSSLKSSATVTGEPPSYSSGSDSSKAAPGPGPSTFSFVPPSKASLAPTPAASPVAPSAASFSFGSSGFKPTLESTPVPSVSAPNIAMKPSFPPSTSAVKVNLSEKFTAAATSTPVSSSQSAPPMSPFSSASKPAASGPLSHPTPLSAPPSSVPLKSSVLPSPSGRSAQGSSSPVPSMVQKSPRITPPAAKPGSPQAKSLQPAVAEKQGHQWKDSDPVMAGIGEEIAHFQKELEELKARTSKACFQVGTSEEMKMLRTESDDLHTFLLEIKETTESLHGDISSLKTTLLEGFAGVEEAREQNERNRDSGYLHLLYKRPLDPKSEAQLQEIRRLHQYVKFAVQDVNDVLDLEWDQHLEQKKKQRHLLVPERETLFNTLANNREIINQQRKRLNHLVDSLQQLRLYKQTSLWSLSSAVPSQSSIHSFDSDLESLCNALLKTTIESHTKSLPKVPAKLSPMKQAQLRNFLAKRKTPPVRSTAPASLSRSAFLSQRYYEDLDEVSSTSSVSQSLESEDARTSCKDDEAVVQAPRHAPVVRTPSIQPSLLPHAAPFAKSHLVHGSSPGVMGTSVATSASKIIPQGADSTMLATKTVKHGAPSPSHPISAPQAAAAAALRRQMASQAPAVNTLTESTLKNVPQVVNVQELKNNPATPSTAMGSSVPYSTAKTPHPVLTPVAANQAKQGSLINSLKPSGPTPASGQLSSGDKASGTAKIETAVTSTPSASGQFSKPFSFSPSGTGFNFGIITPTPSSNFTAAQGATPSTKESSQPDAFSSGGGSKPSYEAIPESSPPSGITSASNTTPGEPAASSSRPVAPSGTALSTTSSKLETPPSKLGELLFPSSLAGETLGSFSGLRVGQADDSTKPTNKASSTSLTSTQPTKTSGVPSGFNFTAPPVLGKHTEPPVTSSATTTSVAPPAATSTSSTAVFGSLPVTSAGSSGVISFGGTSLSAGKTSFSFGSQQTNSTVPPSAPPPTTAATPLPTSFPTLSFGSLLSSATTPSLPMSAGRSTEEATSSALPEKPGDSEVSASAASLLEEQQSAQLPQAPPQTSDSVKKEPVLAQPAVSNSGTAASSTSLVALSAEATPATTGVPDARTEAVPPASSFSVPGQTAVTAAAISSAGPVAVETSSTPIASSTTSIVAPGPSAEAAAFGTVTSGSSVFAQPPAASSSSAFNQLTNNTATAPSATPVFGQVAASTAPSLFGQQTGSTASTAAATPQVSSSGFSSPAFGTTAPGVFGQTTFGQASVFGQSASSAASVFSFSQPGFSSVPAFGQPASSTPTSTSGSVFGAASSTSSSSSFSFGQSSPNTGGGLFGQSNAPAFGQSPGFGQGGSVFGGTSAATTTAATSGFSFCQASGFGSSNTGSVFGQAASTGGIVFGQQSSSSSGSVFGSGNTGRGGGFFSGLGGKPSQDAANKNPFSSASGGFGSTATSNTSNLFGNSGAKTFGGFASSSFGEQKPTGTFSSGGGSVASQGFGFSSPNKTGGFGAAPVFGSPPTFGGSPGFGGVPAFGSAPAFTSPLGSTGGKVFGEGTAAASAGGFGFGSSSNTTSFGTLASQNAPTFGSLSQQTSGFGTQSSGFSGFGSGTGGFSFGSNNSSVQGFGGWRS
UniProt P29083: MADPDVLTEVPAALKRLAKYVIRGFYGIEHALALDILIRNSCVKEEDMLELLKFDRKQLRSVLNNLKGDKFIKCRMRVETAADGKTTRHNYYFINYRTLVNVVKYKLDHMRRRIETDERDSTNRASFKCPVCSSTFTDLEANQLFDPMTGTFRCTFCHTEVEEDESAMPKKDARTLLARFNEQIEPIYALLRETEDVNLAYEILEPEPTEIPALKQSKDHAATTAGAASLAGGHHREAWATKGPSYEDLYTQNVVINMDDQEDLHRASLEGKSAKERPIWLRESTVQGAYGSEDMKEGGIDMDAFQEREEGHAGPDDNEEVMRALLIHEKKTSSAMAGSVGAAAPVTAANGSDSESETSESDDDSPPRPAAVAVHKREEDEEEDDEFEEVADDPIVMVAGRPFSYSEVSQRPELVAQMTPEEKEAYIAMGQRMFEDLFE
UniProt P42224: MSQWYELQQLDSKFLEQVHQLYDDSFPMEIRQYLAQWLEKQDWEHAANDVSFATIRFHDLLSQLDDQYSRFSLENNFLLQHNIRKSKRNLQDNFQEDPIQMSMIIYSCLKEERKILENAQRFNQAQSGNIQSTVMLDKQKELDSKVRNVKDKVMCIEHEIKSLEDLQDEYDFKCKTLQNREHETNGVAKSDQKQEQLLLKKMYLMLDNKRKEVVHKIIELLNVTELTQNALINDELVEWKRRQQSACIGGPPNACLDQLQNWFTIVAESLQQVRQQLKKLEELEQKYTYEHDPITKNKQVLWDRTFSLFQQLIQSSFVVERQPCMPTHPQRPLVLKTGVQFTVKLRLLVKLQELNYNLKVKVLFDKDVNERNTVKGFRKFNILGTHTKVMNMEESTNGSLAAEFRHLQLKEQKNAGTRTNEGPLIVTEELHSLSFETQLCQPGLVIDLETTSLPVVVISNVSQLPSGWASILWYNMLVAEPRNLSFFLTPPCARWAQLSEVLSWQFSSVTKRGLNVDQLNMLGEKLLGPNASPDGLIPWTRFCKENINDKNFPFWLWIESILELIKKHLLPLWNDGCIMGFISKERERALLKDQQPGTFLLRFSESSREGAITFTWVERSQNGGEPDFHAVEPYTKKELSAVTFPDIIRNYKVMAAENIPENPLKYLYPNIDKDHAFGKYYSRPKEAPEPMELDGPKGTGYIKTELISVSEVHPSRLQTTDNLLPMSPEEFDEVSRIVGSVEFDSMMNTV
UniProt P30305: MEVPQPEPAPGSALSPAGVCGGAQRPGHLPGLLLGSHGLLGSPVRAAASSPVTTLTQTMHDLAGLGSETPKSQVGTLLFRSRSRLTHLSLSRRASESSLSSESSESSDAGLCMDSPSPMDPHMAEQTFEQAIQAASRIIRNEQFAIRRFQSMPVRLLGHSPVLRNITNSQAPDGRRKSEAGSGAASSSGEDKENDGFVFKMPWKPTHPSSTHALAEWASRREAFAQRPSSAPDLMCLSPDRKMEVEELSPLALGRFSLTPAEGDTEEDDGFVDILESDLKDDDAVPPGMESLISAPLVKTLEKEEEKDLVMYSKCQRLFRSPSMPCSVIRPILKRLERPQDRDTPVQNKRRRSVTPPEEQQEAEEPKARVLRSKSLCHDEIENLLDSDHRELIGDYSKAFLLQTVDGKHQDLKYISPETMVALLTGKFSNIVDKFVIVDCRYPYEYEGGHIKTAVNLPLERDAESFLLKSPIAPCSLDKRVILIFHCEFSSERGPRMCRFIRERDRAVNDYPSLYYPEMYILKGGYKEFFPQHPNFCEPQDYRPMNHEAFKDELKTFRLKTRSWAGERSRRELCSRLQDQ
UniProt P28562: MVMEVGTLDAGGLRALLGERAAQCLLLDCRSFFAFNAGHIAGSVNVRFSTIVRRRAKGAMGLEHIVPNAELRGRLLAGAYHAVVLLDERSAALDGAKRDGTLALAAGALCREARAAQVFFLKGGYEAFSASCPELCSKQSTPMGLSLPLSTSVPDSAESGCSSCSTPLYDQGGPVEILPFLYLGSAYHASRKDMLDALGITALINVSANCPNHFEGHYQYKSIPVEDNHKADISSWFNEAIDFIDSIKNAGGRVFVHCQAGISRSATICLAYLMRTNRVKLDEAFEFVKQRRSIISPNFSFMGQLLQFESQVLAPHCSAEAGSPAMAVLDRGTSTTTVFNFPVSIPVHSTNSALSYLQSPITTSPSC

The targets below were run with CN[C@@H]1C[C@H]2O[C@@](C)([C@@H]1OC)n1c3ccccc3c3c4c(c5c6ccccc6n2c5c31)C(=O)NC4 [staurosporine] (assay: log2 fold change of tryptic peptide abundance, ligand vs vehicle (limited proteolysis) (log2 ratio); higher = more trypsin-susceptible (destabilized)). Details: ligand concentration: 20 uM; sample: K562 cleared lysate; digestion: 4 min, 22 C (HT-PELSA RT4min, Orbitrap Astral).
“GTF2E2 (peptide sequence: SVTVDSMDEEKIEEYLKR, peptide start residue: 222) (UniProt P29084)” was tested, and the log2 fold change was 0.172.
With “TSFM (peptide sequence: KTGYSFVNCKK, peptide start residue: 56) (UniProt P43897)” the log2 fold change was -0.346.
“FDFT1 (peptide sequence: CLGHPEEFYNLVR, peptide start residue: 6) (UniProt P37268)” showed a log2 fold change of 0.0462.
Target “HMOX2 (peptide sequence: YMGDLSGGQVLK, peptide start residue: 157) (UniProt P30519)” has a log2 fold change of -0.294.
“HELZ (peptide sequence: SLTGESLNGMVTK, peptide start residue: 118) (UniProt P42694)” gave a log2 fold change of 0.329.
“NUP214 (peptide sequence: MLRTESDDLHTFLLEIK, peptide start residue: 739) (UniProt P35658)” was tested, and the log2 fold change was 0.564.
For “GTF2E1 (peptide sequence: YKLDHMR, peptide start residue: 105) (UniProt P29083)”, the log2 fold change was 0.361.
“STAT1 (peptide sequence: KFNILGTHTK, peptide start residue: 379) (UniProt P42224)” was tested, and the log2 fold change was -0.513.
Work on “CDC25B (peptide sequence: TAVNLPLER, peptide start residue: 453) (UniProt P30305)” yielded a log2 fold change of 0.369.
Work on “UniProt P28562 (peptide sequence: LLAGAYHAVVLLDER, peptide start residue: 75)” yielded a log2 fold change of 0.361.
